Measurements as given in the supplement of paper PMC4604168 (melanoma cell lines).
Some of the results follow. Many values rest on one well or one pass, so single values are uncertain.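 Cells were imaged in 1,536-well plates, and nuclei stained with an antibody against cleaved PARP were counted against all DNA-stained nuclei to give the apoptosis fraction. Screening doses were chosen to leave most cells alive, and resting and induced cleaved-PARP levels differ strongly between cell lines.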

Assays:
Experiment in all cases: cleaved PARP positive nuclei fraction relative to DMSO control; melanoma cells; higher = more apoptosis
Details in all cases: library dose: low library concentration; 72 h
MZ2-MEL = test system: MZ2-MEL
MeWo = test system: MeWo
RPMI7951 = test system: RPMI7951
RVH-421 = test system: RVH-421
SkMel28 = test system: SkMel28
SkMel30 = test system: SkMel30
SkMel5 = test system: SkMel5
UACC257 = test system: UACC257
UACC62 = test system: UACC62
WM115 = test system: WM115
WM1716 = test system: WM1716
WM1745 = test system: WM1745
WM3526 = test system: WM3526
WM3619 = test system: WM3619
WM451Lu = test system: WM451Lu

SMILES | cleaved PARP positive nuclei fraction (MZ2-MEL) | cleaved PARP positive nuclei fraction (MeWo) | cleaved PARP positive nuclei fraction (RPMI7951) | cleaved PARP positive nuclei fraction (RVH-421) | cleaved PARP positive nuclei fraction (SkMel28) | cleaved PARP positive nuclei fraction (SkMel30) | cleaved PARP positive nuclei fraction (SkMel5) | cleaved PARP positive nuclei fraction (UACC257) | cleaved PARP positive nuclei fraction (UACC62) | cleaved PARP positive nuclei fraction (WM115) | cleaved PARP positive nuclei fraction (WM1716) | cleaved PARP positive nuclei fraction (WM1745) | cleaved PARP positive nuclei fraction (WM3526) | cleaved PARP positive nuclei fraction (WM3619) | cleaved PARP positive nuclei fraction (WM451Lu)
O=C(O)C(=O)Nc1sc2c(c1C(=O)O)CCNC2 + CC(C)CCN1c2nc(Nc3cc(F)c(O)c(F)c3)ncc2N(C)C(=O)C1C [BID1870] (first compound 1.66667 µM, partner dose 0.2 µM) | 35.6% | 28.3% | 124% | 125% | 78.5% | 64% | 31.8% | 100% | 45.8% | 35.2% | 163% | 131% | 77.8% | 55.5% | 27.8%
O=C(O)C(=O)Nc1sc2c(c1C(=O)O)CCNC2 + Oc1nc(-c2ccc(C(F)(F)F)cc2)nc2c1CSCC2 [XAV939] (first compound 1.66667 µM, partner dose 2 µM) | 142% | 53.5% | 135% | 129% | 130% | 583% | 91.8% | 298% | 40.9% | 120% | 201% | 144% | 323% | 169% | 67.4%
Oc1cc(-c2nc(-c3ccccc3)[nH]c2-c2ccncc2)ccc1Cl + O=C1NC(=O)/C(=C/c2ccc(-c3ccc(F)cc3O)o2)S1 [AS252424] (first compound 0.2 µM, partner dose 1 µM) | 191% | 58.9% | 158% | 31.4% | 132% | 37.2% | 51% | 254% | 135% | 639% | 61.4% | 107% | 416% | 140% | 87%
NCC(=O)Nc1ccc(-n2nc(C(F)(F)F)cc2-c2ccc3c(ccc4ccccc43)c2)cc1 + COc1ccc(COc2ccc(Cc3cnc(N)nc3N)cc2OC)cc1 [GW2580] (first compound 1 µM, partner dose 1 µM) | 58.2% | 403% | 51.6% | 41.4% | 185% | 109% | 127% | 77.8% | 73.8% | 162% | 120% | 114% | 123% | 145% | 196%
NCC(=O)Nc1ccc(-n2nc(C(F)(F)F)cc2-c2ccc3c(ccc4ccccc43)c2)cc1 + c1cc(-c2cnn3cc(-c4ccc(OCCN5CCCCC5)cc4)cnc23)ccn1 [Dorsomorphin] (first compound 1 µM, partner dose 0.4 µM) | 94.3% | 95% | 235% | 69.5% | 104% | 117% | 124% | 61.9% | 218% | 109% | 96.5% | 114% | 116% | 72.7% | 82.2%
COc1ccc2c(c1)CCC1C2CCC2(C)C(NCCCCCCN3C(=O)C=CC3=O)CCC12 (stereo not given) + COc1ccc(-c2ccc3c(N4CCOCC4)nc(N4C[C@@H](C)O[C@@H](C)C4)nc3n2)cc1CO [KU0063794] (first compound 0.4 µM, partner dose 0.02 µM) | 95.7% | 28.1% | 124% | 143% | 54.2% | 46% | 60.4% | 238% | 249% | 67.4% | 119% | 113% | 161% | 108% | 65.9%
COc1cc2ncnc(Nc3ccc(Oc4ccccc4)cc3)c2cc1OC + O=C(O)C(=O)Nc1sc2c(c1C(=O)O)CCNC2 [TCS401] (first compound 2 µM, partner dose 1.66667 µM) | 110% | 47% | 31.1% | 17.5% | 182% | 19.6% | 32.5% | 42% | 57% | 76.7% | 48.7% | 108% | 63.6% | 74.4% | 56.3%
Oc1cc(-c2nc(-c3ccccc3)[nH]c2-c2ccncc2)ccc1Cl + Cn1cc(/C=C2\C(=O)Nc3cccnc32)c2ccccc21 [GW441756] (first compound 0.2 µM, partner dose 0.4 µM) | 63.3% | 92.8% | 34.9% | 84.8% | 220% | 113% | 83.4% | 150% | 510% | 282% | 40% | 123% | 95.4% | 88% | 104%
O=C(Nc1ccccc1)c1cc([N+](=O)[O-])ccc1Cl + COc1cc(N2CCC(N3CCN(C)CC3)CC2)ccc1Nc1ncc(Cl)c(Nc2ccccc2S(=O)(=O)C(C)C)n1 [NVP-TAE684] (first compound 2 µM, partner dose 0.08 µM) | 93.4% | 109% | 91.8% | 139% | 25.7% | 56.5% | 145% | 66.9% | 117% | 93.9% | 204% | 241% | 72.2% | 85% | 62.5%
CCc1ccc(CCOc2ccc(CC3SC(=O)NC3=O)cc2)nc1 (stereo not given) [pioglitazone] + COc1cc2ncnc(Nc3ccc(Oc4ccccc4)cc3)c2cc1OC [SrcI1] (first compound 2 µM, partner dose 2 µM) | 114% | 27.5% | 119% | 62.2% | 225% | 37.4% | 68.5% | 180% | 837% | 45.6% | 152% | 113% | 63.7% | 84.2% | 47.7%
COc1cc2c(Oc3ccc4[nH]c(C)cc4c3F)ncnc2cc1OCCCN1CCCC1 [cediranib] + CCN(CC)CCCCNc1ncc2cc(-c3cc(OC)cc(OC)c3)c(NC(=O)NC(C)(C)C)nc2n1 [PD173074] (first compound 0.4 µM, partner dose 0.1 µM) | 28% | 102% | 46% | 83.9% | 145% | 48.1% | 53% | 53.6% | 78% | 68% | 98.7% | 106% | 63.7% | 85.8% | 251%
CN(C)S(=O)(=O)c1ccc2c(c1)/C(=C/c1cc3c([nH]1)CCCC3)C(=O)N2 + COc1ccc(COc2ccc(Cc3cnc(N)nc3N)cc2OC)cc1 [GW2580] (first compound 0.4 µM, partner dose 1 µM) | 109% | 109% | 136% | 35.5% | 94.6% | 16% | 124% | 93.3% | 142% | 58.3% | 97.6% | 108% | 196% | 86.7% | 27.3%
O=C(O)c1ccc(-c2c[nH]c3ncc(-c4ccccc4)cc23)cc1C1CCCC1 + CCCCCCCCCCCC1=C(O)C(=O)C=C(O)C1=O [Embelin] (first compound 0.16 µM, partner dose 1.2 µM) | 376% | 33.3% | 41.8% | 352% | 75.3% | 11.6% | 71.9% | 85.8% | 178% | 73.5% | 92.2% | 93.9% | 68.5% | 249% | 80.3%
O=S(=O)(c1ccccc1)N(CC(F)(F)F)c1ccc(C(O)(C(F)(F)F)C(F)(F)F)cc1 + O=C(O)C(=O)Nc1sc2c(c1C(=O)O)CCNC2 [TCS401] (first compound 1.4 µM, partner dose 1.66667 µM) | 110% | 60.4% | 34.7% | 55.6% | 135% | 14.4% | 70.6% | 62.2% | 155% | 61.8% | 82% | 127% | 65% | 86% | 85.5%
COC(=O)c1sccc1S(=O)(=O)Nc1ccc(Nc2ccccc2)cc1OC + Cc1cc([N+](=O)[O-])ccc1NS(=O)(=O)c1cc(Cl)ccc1Cl [FH535] (first compound 1 µM, partner dose 1 µM) | 40.1% | 97.9% | 83.3% | 90.8% | 90.1% | 21.6% | 135% | 33.3% | 499% | 151% | 92.4% | 111% | 62.8% | 82.4% | 113%
N#Cc1c(O)c2c(-c3ccc(-c4ccccc4O)cc3)csc2[nH]c1=O + CCN(CC)CCCCNc1ncc2cc(-c3cc(OC)cc(OC)c3)c(NC(=O)NC(C)(C)C)nc2n1 [PD173074] (first compound 2 µM, partner dose 0.1 µM) | 194% | 28.1% | 80.4% | 91.8% | 140% | 472% | 87.6% | 191% | 119% | 96.8% | 85.6% | 98.9% | 107% | 79% | 105%
COC(=O)c1sccc1S(=O)(=O)Nc1ccc(Nc2ccccc2)cc1OC + CCN(CC)CCCCNc1ncc2cc(-c3cc(OC)cc(OC)c3)c(NC(=O)NC(C)(C)C)nc2n1 [PD173074] (first compound 1 µM, partner dose 0.1 µM) | 293% | 139% | 82.1% | 60.4% | 151% | 146% | 40.6% | 189% | 80.5% | 154% | 56.6% | 112% | 53.3% | 80.8% | 211%
Oc1cc(-c2nc(-c3ccccc3)[nH]c2-c2ccncc2)ccc1Cl + Oc1nc(-c2ccc(C(F)(F)F)cc2)nc2c1CSCC2 [XAV939] (first compound 0.2 µM, partner dose 2 µM) | 53.3% | 53.5% | 153% | 104% | 157% | 179% | 37.5% | 119% | 92.7% | 237% | 392% | 147% | 91.2% | 89.2% | 25%
O=C(O)c1ccc(-c2c[nH]c3ncc(-c4ccccc4)cc23)cc1C1CCCC1 + CCc1ccc(CCOc2ccc(CC3SC(=O)NC3=O)cc2)nc1 [pioglitazone] (first compound 0.16 µM, partner dose 2 µM) | 286% | 177% | 89.4% | 41.8% | 147% | 55% | 70.2% | 13.7% | 45% | 140% | 78.2% | 140% | 78.2% | 83.6% | 474%
COc1ccc(-c2ccc3c(N4CCOCC4)nc(N4C[C@@H](C)O[C@@H](C)C4)nc3n2)cc1CO + c1cc(-c2cnn3cc(-c4ccc(OCCN5CCCCC5)cc4)cnc23)ccn1 [Dorsomorphin] (first compound 0.02 µM, partner dose 0.4 µM) | 129% | 112% | 48.8% | 26.7% | 106% | 46.2% | 194% | 119% | 912% | 45.9% | 78.6% | 123% | 69.7% | 79.1% | 72.7%

Complete entries from above. Order of values: cleaved PARP positive nuclei fraction (MZ2-MEL) | cleaved PARP positive nuclei fraction (MeWo) | cleaved PARP positive nuclei fraction (RPMI7951) | cleaved PARP positive nuclei fraction (RVH-421) | cleaved PARP positive nuclei fraction (SkMel28) | cleaved PARP positive nuclei fraction (SkMel30) | cleaved PARP positive nuclei fraction (SkMel5) | cleaved PARP positive nuclei fraction (UACC257) | cleaved PARP positive nuclei fraction (UACC62) | cleaved PARP positive nuclei fraction (WM115) | cleaved PARP positive nuclei fraction (WM1716) | cleaved PARP positive nuclei fraction (WM1745) | cleaved PARP positive nuclei fraction (WM3526) | cleaved PARP positive nuclei fraction (WM3619) | cleaved PARP positive nuclei fraction (WM451Lu)
COc1ccc(-c2ccc3c(N4CCOCC4)nc(N4C[C@@H](C)O[C@@H](C)C4)nc3n2)cc1CO + c1cc(-c2cnn3cc(-c4ccc(OCCN5CCCCC5)cc4)cnc23)ccn1 [Dorsomorphin] (first compound 0.02 µM, partner dose 0.4 µM) reads 129% | 112% | 48.8% | 26.7% | 106% | 46.2% | 194% | 119% | 912% | 45.9% | 78.6% | 123% | 69.7% | 79.1% | 72.7%
CCc1ccc(CCOc2ccc(CC3SC(=O)NC3=O)cc2)nc1 (stereo not given) [pioglitazone] + COc1cc2ncnc(Nc3ccc(Oc4ccccc4)cc3)c2cc1OC [SrcI1] (first compound 2 µM, partner dose 2 µM) reads 114% | 27.5% | 119% | 62.2% | 225% | 37.4% | 68.5% | 180% | 837% | 45.6% | 152% | 113% | 63.7% | 84.2% | 47.7%
